Assay results from PMC12278352, “Characterization of DnaB–DnaG Interaction in M. tuberculosis Using Small‐Angle X‐ray Scattering‐Based Dissociation Assay” (Chembiochem, 2025).
No constants are given. Whether binding was seen depends on the method and setting.

Molecular target: primase domain of gene 4 protein (gp4) from bacteriophage T7 (residues 1–271) (bacteriophage T7) (UniProt P03692)
Experiment: condition: only in the absence of ATP/CTP, RNA, and Mg2+ (2, 4 and 8 mg/mL); SAXS; T7 primase alone, without ATP/CTP, RNA and Mg2+, at 2, 4 and 8 mg/mL; 20 mM Tris-HCl pH 7.5, 1 mM DTT; 4 °C; Rg against protein concentration; both purified

B1: primase domain of gene 4 protein (gp4) from bacteriophage T7 (residues 1–271) (domain or fragment, UniProt P03692 1-271, looked up)
chain: MDNSHDSDSVFLYHIPCDNCGSSDGNSLFSDGHTFCYVCEKWTAGNEDTKERASKRKPSGGKPMTYNVWNFGESNGRYSALTARGISKETCQKAGYWIAKVDGVMYQVADYRDQNGNIVSQKVRDKDKNFKTTGSHKSDALFGKHLWNGGKKIVVTEGEIDMLTVMELQDCKYPVVSLGHGASAAKKTCAANYEYFDQFEQIILMFDMDEAGRKAVEEAAQVLPAGKVRVAVLPCKDANECHLNGHDREIMEQVWNAGPWIPDGVVSALSL
notes: primase domain of gene 4 protein (gp4), bacteriophage T7, residues 1-271; For the NMR spectra the protein was 15N-labelled and deuterated; Monomer without cofactors, dimer with ATP/CTP, RNA and Mg2+; also called T7 primase; T7 DNA primase
binding: no binding
